Source: PubChem BioAssay AID1159584 (Peter MacCallum Cancer Centre, 2016)

Aim: 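Knock-downs that harm CDH1-null cells more than parental MCF10A cells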 (primary screen)
System: human MCF10A breast epithelial cells, parental and CDH1-null
Knock-down reagent: siRNA against human genes
Measurement: 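Cell viability by CellTiter-Glo ATP luminescence, each line scaled to the mean of mock wells across plates, then CDH1-null over parental ratio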
Direction: CDH1-null / parental viability ratio: higher = CDH1-null cells survive relatively better than parental; CDH1-null viability vs mock: higher = more viable CDH1-null cells; parental viability vs mock: higher = more viable parental cells
This is one part, drawn at random, of about 18,000 deposited reagents. The numbers tell different reagents against one gene apart. No sequences are given here. The record does not give: the amount of reagent, the time to read-out.

Gene,reagent,CDH1-null / parental viability ratio,CDH1-null viability vs mock (fraction of mock),parental viability vs mock (fraction of mock)
OR4F17 (olfactory receptor family 4 subfamily F member 17),1,0.97,0.94,0.97
REG3G (regenerating family member 3 gamma),1,0.85,0.75,0.88
KRABD2 (KRAB domain containing 2),1,1.3,0.6,0.46
MAP3K13 (mitogen-activated protein kinase kinase kinase 13),1,0.88,0.73,0.83
GAK (cyclin G associated kinase),1,1.09,1.02,0.94
ILDR1 (immunoglobulin like domain containing receptor 1),1,1.25,1.2,0.96
LRRC4C (leucine rich repeat containing 4C),1,0.91,0.78,0.86
SPATA2 (spermatogenesis associated 2),1,0.99,0.73,0.74
"RAB3C (RAB3C, member RAS oncogene family)",1,0.88,0.84,0.96
FOLR1 (folate receptor alpha),1,1.03,0.91,0.88
"CCSAP (centriole, cilia and spindle associated protein)",1,1.2,0.66,0.55
DNAH5 (dynein axonemal heavy chain 5),1,0.97,0.74,0.76
ADGRL4 (adhesion G protein-coupled receptor L4),1,1.61,1,0.62
ZNF428 (zinc finger protein 428),1,1.21,1.02,0.84
TGM1 (transglutaminase 1),1,0.94,0.66,0.7
RBM45 (RNA binding motif protein 45),1,1.13,0.97,0.86
STAM2 (signal transducing adaptor molecule 2),1,0.92,1.09,1.19
TNN (tenascin N),1,0.84,0.62,0.74
BAMBI (BMP and activin membrane bound inhibitor),1,0.87,0.45,0.52
RASD2 (RASD family member 2),1,1.13,0.86,0.76
MTF1 (metal regulatory transcription factor 1),1,1.05,0.68,0.65
"TFB2M (transcription factor B2, mitochondrial)",1,1.17,1.02,0.87
ALG13 (ALG13 UDP-N-acetylglucosaminyltransferase subunit),1,0.86,0.84,0.98
ALG13 (ALG13 UDP-N-acetylglucosaminyltransferase subunit),2,1.09,1.04,0.95
SRSF2 (serine and arginine rich splicing factor 2),1,0.98,0.48,0.49
MTHFD2,1,1.14,0.89,0.78
KRTAP3-2 (keratin associated protein 3-2),1,1.11,1.04,0.94
OIP5 (Opa interacting protein 5),1,0.93,0.91,0.98
CSN2 (casein beta),1,0.87,0.68,0.78
AKAP1 (A-kinase anchoring protein 1),1,0.87,0.7,0.8
OXCT2 (3-oxoacid CoA-transferase 2),1,0.99,0.76,0.77
RPLP0 (ribosomal protein lateral stalk subunit P0),1,1.06,0.36,0.34
DBX1 (developing brain homeobox 1),1,1.02,1,0.98
ZNF652 (zinc finger protein 652),1,0.91,0.72,0.79
"MALL (mal, T cell differentiation protein like)",1,1.1,0.8,0.73
CCT8 (chaperonin containing TCP1 subunit 8),1,0.87,0.58,0.67
TMEM92 (transmembrane protein 92),1,0.85,0.66,0.78
NDUFA11 (NADH:ubiquinone oxidoreductase subunit A11),1,0.82,0.66,0.8
TSPAN9 (tetraspanin 9),1,1.05,0.84,0.8
CPSF7 (cleavage and polyadenylation specific factor 7),1,1.07,1.08,1.01
MDFI (MyoD family inhibitor),1,1.01,0.74,0.73
ZNF823 (zinc finger protein 823),1,1.23,1.23,1
PCBP4 (poly(rC) binding protein 4),1,0.88,0.66,0.75
ASB1 (ankyrin repeat and SOCS box containing 1),1,0.92,0.55,0.6
TSPAN14 (tetraspanin 14),1,0.76,0.5,0.66
RMND5A (required for meiotic nuclear division 5 homolog A),1,0.96,0.44,0.46
MMP25 (matrix metallopeptidase 25),1,1.3,0.26,0.2
HOXA3 (homeobox A3),1,1.05,0.86,0.82
CASKIN1 (CASK interacting protein 1),1,1.22,0.66,0.54
CXCR5 (C-X-C motif chemokine receptor 5),1,1.35,0.84,0.62
RHOT2 (ras homolog family member T2),1,1.02,0.9,0.88
IPO5 (importin 5),1,0.92,1.08,1.18
TAF6 (TATA-box binding protein associated factor 6),1,0.91,0.86,0.94
TSPAN3 (tetraspanin 3),1,0.82,0.9,1.1
RPL24 (ribosomal protein L24),1,1.67,0.4,0.24
SYNPR (synaptoporin),1,0.75,0.74,0.99
SYF2 (SYF2 pre-mRNA splicing factor),1,1.11,0.8,0.72
SBF1 (SET binding factor 1),1,1.34,0.99,0.74
GJD2 (gap junction protein delta 2),1,0.64,0.54,0.84
RFPL4AL1 (ret finger protein like 4A like 1),1,0.87,0.46,0.53
AGK (acylglycerol kinase),1,0.91,0.84,0.92
TRIM71 (tripartite motif containing 71),1,0.98,0.86,0.88
PRX (periaxin),1,1.22,0.99,0.81
DSC2 (desmocollin 2),1,1.03,0.89,0.86
RBMY1A1 (RNA binding motif protein Y-linked family 1 member A1),1,1.17,0.74,0.63
CD1D (CD1d molecule),1,0.82,0.72,0.88
C16orf82 (chromosome 16 open reading frame 82),1,0.99,1.03,1.04
H2AC13 (H2A clustered histone 13),1,0.84,0.46,0.55

Taken from above.
Under “CDH1-null viability vs mock (fraction of mock)”, CCSAP (centriole, cilia and spindle associated protein) shows 0.66
IPO5 (importin 5), CDH1-null / parental viability ratio = 0.92
CSN2 (casein beta), CDH1-null viability vs mock (fraction of mock) → 0.68
Entry of ADGRL4 (adhesion G protein-coupled receptor L4) in “parental viability vs mock (fraction of mock)”: 0.62
Result of CCT8 (chaperonin containing TCP1 subunit 8) under “CDH1-null / parental viability ratio”: 0.87
Result of RPL24 (ribosomal protein L24) under “CDH1-null viability vs mock (fraction of mock)”: 0.4
